# Data as given in the supplement of paper PMC8728848.
# The list shows a part of the results.
# How the values were obtained:
# Test in all cases: glycan array binding signal (z-score within array); higher = stronger binding
# Settings in all cases: glycan notation: IUPAC condensed, linker removed
# [1] = target: Gal(a1-3)Gal(b1-3)GlcNAc(b1-2)Man
# Method in brief: (§1)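 From the Consortium for Functional Glycomics database, 3228 arrays were curated, keeping only those whose protein sequence was available. Binding is given as a within-array Z-score averaged across arrays sharing a protein sequence and across linkers. Negative Z-scores can be read as non-binding.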
# [2] = target: Gal(a1-3)Gal(b1-3)GlcNAc(b1-2)Man(a1-3)[Gal(a1-3)Gal(b1-3)GlcNAc(b1-2)Man(a1-6)]Man(b1-4)GlcNAc(b1-4)GlcNAc
# Method in brief: as §1
# [3] = target: Gal(a1-3)Gal(b1-3)GlcNAc(b1-3)GalNAc
# Method in brief: as §1
# [4] = target: Gal(a1-3)Gal(b1-3)GlcNAc(b1-6)GalNAc
# Method in brief: as §1
# [5] = target: Gal(a1-3)Gal(b1-3)[Fuc(a1-4)]GlcNAc(b1-2)Man(a1-3)[Gal(a1-3)Gal(b1-3)[Fuc(a1-4)]GlcNAc(b1-2)Man(a1-6)]Man(b1-4)GlcNAc(b1-4)GlcNAc
# Method in brief: as §1
# Gal(a1-3)Gal(b1-4)Glc = target: Gal(a1-3)Gal(b1-4)Glc
# Method in brief: as §1
# Gal(a1-3)Gal(b1-4)GlcNAc = target: Gal(a1-3)Gal(b1-4)GlcNAc
# Method in brief: as §1
# [6] = target: Gal(a1-3)Gal(b1-4)GlcNAc(b1-2)Man
# Method in brief: as §1
# [7] = target: Gal(a1-3)Gal(b1-4)GlcNAc(b1-2)Man(a1-3)[Gal(a1-3)Gal(b1-4)GlcNAc(b1-2)Man(a1-6)]Man(b1-4)GlcNAc(b1-4)GlcNAc
# Method in brief: as §1
# [8] = target: Gal(a1-3)Gal(b1-4)GlcNAc(b1-3)GalNAc
# Method in brief: as §1
# [9] = target: Gal(a1-3)Gal(b1-4)GlcNAc(b1-6)GalNAc
# Method in brief: as §1
# [10] = target: Gal(a1-3)Gal(b1-4)[Fuc(a1-3)]GlcNAc
# Method in brief: as §1
# [11] = target: Gal(a1-3)Gal(b1-4)[Fuc(a1-3)]GlcNAc(b1-2)Man(a1-3)[Gal(a1-3)Gal(b1-4)[Fuc(a1-3)]GlcNAc(b1-2)Man(a1-6)]Man(b1-4)GlcNAc(b1-4)GlcNAc
# Method in brief: as §1
# Gal(a1-3)GalNAc = target: Gal(a1-3)GalNAc
# Method in brief: as §1
# [12] = target: Gal(a1-3)[Gal(a1-4)]Gal(b1-4)GlcNAc
# Method in brief: as §1
# [13] = target: Gal(a1-4)Gal(b1-3)GlcNAc(b1-2)Man(a1-3)[Gal(a1-4)Gal(b1-3)GlcNAc(b1-2)Man(a1-6)]Man(b1-4)GlcNAc(b1-4)GlcNAc
# Method in brief: as §1
# Gal(a1-4)Gal(b1-4)Glc = target: Gal(a1-4)Gal(b1-4)Glc
# Method in brief: as §1
# Gal(a1-4)Gal(b1-4)GlcNAc = target: Gal(a1-4)Gal(b1-4)GlcNAc
# Method in brief: as §1
# [14] = target: Gal(a1-4)Gal(b1-4)GlcNAc(b1-2)Man(a1-3)[Gal(a1-4)Gal(b1-4)GlcNAc(b1-2)Man(a1-6)]Man(b1-4)GlcNAc(b1-4)GlcNAc
# Method in brief: as §1
# [15] = target: Gal(a1-4)Gal(b1-4)GlcNAc(b1-3)Gal(b1-4)Glc
# Method in brief: as §1
# Gal(a1-4)GlcNAc = target: Gal(a1-4)GlcNAc
# Method in brief: as §1
# Gal(a1-6)Glc = target: Gal(a1-6)Glc
# Method in brief: as §1
# Gal(b1-2)Gal = target: Gal(b1-2)Gal
# Method in brief: as §1
# Gal(b1-3)Gal = target: Gal(b1-3)Gal
# Method in brief: as §1
# Gal(b1-3)Gal(b1-4)GlcNAc = target: Gal(b1-3)Gal(b1-4)GlcNAc
# Method in brief: as §1
# [16] = target: Gal(b1-3)Gal(b1-4)GlcNAc(b1-2)Man(a1-3)[Gal(b1-3)Gal(b1-4)GlcNAc(b1-2)Man(a1-6)]Man(b1-4)GlcNAc(b1-4)GlcNAc
# Method in brief: as §1
# Gal(b1-3)GalNAc = target: Gal(b1-3)GalNAc
# Method in brief: as §1
# [17] = target: Gal(b1-3)GalNAc(a1-3)[Fuc(a1-2)]Gal(b1-4)Glc
# Method in brief: as §1
# [18] = target: Gal(b1-3)GalNAc(a1-3)[Fuc(a1-2)]Gal(b1-4)GlcNAc
# Method in brief: as §1
# Gal(b1-3)GalNAc(b1-3)Gal = target: Gal(b1-3)GalNAc(b1-3)Gal
# Method in brief: as §1
# [19] = target: Gal(b1-3)GalNAc(b1-3)Gal(a1-4)Gal(b1-4)Glc
# Method in brief: as §1
# [20] = target: Gal(b1-3)GalNAc(b1-4)Gal(b1-4)Glc
# Method in brief: as §1
# [21] = target: Gal(b1-3)GalNAc(b1-4)[Neu5Ac(a2-3)]Gal(b1-4)Glc
# Method in brief: as §1
# Gal(b1-3)GlcNAc = target: Gal(b1-3)GlcNAc
# Method in brief: as §1
# [22] = target: Gal(b1-3)GlcNAc(a1-3)Gal(b1-4)GlcNAc
# Method in brief: as §1
# [23] = target: Gal(b1-3)GlcNAc(a1-6)Gal(b1-4)GlcNAc
# Method in brief: as §1
# Gal(b1-3)GlcNAc(b1-2)Man = target: Gal(b1-3)GlcNAc(b1-2)Man
# Method in brief: as §1
# [24] = target: Gal(b1-3)GlcNAc(b1-2)Man(a1-3)[Gal(b1-3)GlcNAc(b1-2)Man(a1-6)]Man(b1-4)GlcNAc(b1-4)GlcNAc
# Method in brief: as §1
# [25] = target: Gal(b1-3)GlcNAc(b1-2)Man(a1-3)[Gal(b1-3)GlcNAc(b1-2)Man(a1-6)]Man(b1-4)GlcNAc(b1-4)[Fuc(a1-6)]GlcNAc
# Method in brief: as §1
# [26] = target: Gal(b1-3)GlcNAc(b1-2)Man(a1-3)[GlcNAc(b1-4)][Gal(b1-3)GlcNAc(b1-2)Man(a1-6)]Man(b1-4)GlcNAc(b1-4)GlcNAc
# Method in brief: as §1
# [27] = target: Gal(b1-3)GlcNAc(b1-2)[Gal(b1-3)GlcNAc(b1-6)]Man(a1-6)[Gal(b1-3)GlcNAc(b1-2)Man(a1-3)]Man(b1-4)GlcNAc(b1-4)GlcNAc
# Method in brief: as §1
# [28] = target: Gal(b1-3)GlcNAc(b1-3)Gal(b1-3)GlcNAc
# Method in brief: as §1
# [29] = target: Gal(b1-3)GlcNAc(b1-3)Gal(b1-4)Glc
# Method in brief: as §1
# [30] = target: Gal(b1-3)GlcNAc(b1-3)Gal(b1-4)GlcNAc
# Method in brief: as §1
# [31] = target: Gal(b1-3)GlcNAc(b1-3)Gal(b1-4)GlcNAc(b1-2)Man(a1-3)[Gal(b1-3)GlcNAc(b1-3)Gal(b1-4)GlcNAc(b1-2)Man(a1-6)]Man(b1-4)GlcNAc(b1-4)GlcNAc
# Method in brief: as §1
binder,measurement,setting,value
"GST-Gap1 (Streptococcus parasanguinis), A1C3L5 (protein) MFYFVPSWYNGQRQWYYDTPWWFRVKNRMTFDDSVNQVKMFLQGQEEIGLMILNYQPQLRYFLHKQNIFGIYYWSFFDDIQNITRSYTKIIHLKDLNWPEGCEFLYSPFAVVVRLKGEIFAIVNYAEDGNLHSVSFQKNGKVTKDYIFDDRGFLSSILYYDIDERPLYQDYLNINGVWQVREFLKKENDPTPILMINDFSDQTFSKKYYNGWEELIKERLAIFQNNHVENEDVFVLASDTQHNQLVSSIFKEHRKIYSFFGNRFNLENLGQDRISINDATFLVVDTEKNEELLRKTCENLVFKSIPIVRLSPFDSRLRLGHSQTVKEQIIYFHIDNIELDELYSVIAIILELMTLHLDIELRIVTFRQDFQLDLLKTWIIDFIKTNHFEDLLFKQISEGENEIEDEGEIELSRIAMECFTNENQIIKCLDTARLVIDLGIEPDLYTQIASISAGIPQINRVSSDYVIHQKNGLVISDISKLSSAIEFYFDGLFNWNEALIYAVRKMSDYTSGKILKQWKGMLKKK",glycan array binding signal (z-score),[1],0.212
same,glycan array binding signal (z-score),[2],0.647
same,glycan array binding signal (z-score),[3],0.124
same,glycan array binding signal (z-score),[4],0.654
same,glycan array binding signal (z-score),[5],0.264
same,glycan array binding signal (z-score),Gal(a1-3)Gal(b1-4)Glc,2.03
same,glycan array binding signal (z-score),Gal(a1-3)Gal(b1-4)GlcNAc,-0.312
same,glycan array binding signal (z-score),[6],-0.219
same,glycan array binding signal (z-score),[7],0.421
same,glycan array binding signal (z-score),[8],0.13
same,glycan array binding signal (z-score),[9],-1.74
same,glycan array binding signal (z-score),[10],0.06
same,glycan array binding signal (z-score),[11],0.577
same,glycan array binding signal (z-score),Gal(a1-3)GalNAc,-0.266
same,glycan array binding signal (z-score),[12],-0.075
same,glycan array binding signal (z-score),[13],0.314
same,glycan array binding signal (z-score),Gal(a1-4)Gal(b1-4)Glc,-0.507
same,glycan array binding signal (z-score),Gal(a1-4)Gal(b1-4)GlcNAc,0.205
same,glycan array binding signal (z-score),[14],0.243
same,glycan array binding signal (z-score),[15],-0.321
same,glycan array binding signal (z-score),Gal(a1-4)GlcNAc,0.216
same,glycan array binding signal (z-score),Gal(a1-6)Glc,-0.438
same,glycan array binding signal (z-score),Gal(b1-2)Gal,0.47
same,glycan array binding signal (z-score),Gal(b1-3)Gal,0.747
same,glycan array binding signal (z-score),Gal(b1-3)Gal(b1-4)GlcNAc,0.416
same,glycan array binding signal (z-score),[16],13.5
same,glycan array binding signal (z-score),Gal(b1-3)GalNAc,-0.397
same,glycan array binding signal (z-score),[17],-0.01
same,glycan array binding signal (z-score),[18],-0.511
same,glycan array binding signal (z-score),Gal(b1-3)GalNAc(b1-3)Gal,-0.736
same,glycan array binding signal (z-score),[19],-0.565
same,glycan array binding signal (z-score),[20],0.476
same,glycan array binding signal (z-score),[21],-0.353
same,glycan array binding signal (z-score),Gal(b1-3)GlcNAc,-0.046
same,glycan array binding signal (z-score),[22],0.253
same,glycan array binding signal (z-score),[23],-0.654
same,glycan array binding signal (z-score),Gal(b1-3)GlcNAc(b1-2)Man,2.06
same,glycan array binding signal (z-score),[24],0.828
same,glycan array binding signal (z-score),[25],0.267
same,glycan array binding signal (z-score),[26],-1.62
same,glycan array binding signal (z-score),[27],1.95
same,glycan array binding signal (z-score),[28],0.343
same,glycan array binding signal (z-score),[29],0.424
same,glycan array binding signal (z-score),[30],0.226
same,glycan array binding signal (z-score),[31],0.301

# Two entries drawn at random from the list so far, as already listed:
binder,measurement,setting,value
"GST-Gap1 (Streptococcus parasanguinis), A1C3L5 (protein) MFYFVPSWYNGQRQWYYDTPWWFRVKNRMTFDDSVNQVKMFLQGQEEIGLMILNYQPQLRYFLHKQNIFGIYYWSFFDDIQNITRSYTKIIHLKDLNWPEGCEFLYSPFAVVVRLKGEIFAIVNYAEDGNLHSVSFQKNGKVTKDYIFDDRGFLSSILYYDIDERPLYQDYLNINGVWQVREFLKKENDPTPILMINDFSDQTFSKKYYNGWEELIKERLAIFQNNHVENEDVFVLASDTQHNQLVSSIFKEHRKIYSFFGNRFNLENLGQDRISINDATFLVVDTEKNEELLRKTCENLVFKSIPIVRLSPFDSRLRLGHSQTVKEQIIYFHIDNIELDELYSVIAIILELMTLHLDIELRIVTFRQDFQLDLLKTWIIDFIKTNHFEDLLFKQISEGENEIEDEGEIELSRIAMECFTNENQIIKCLDTARLVIDLGIEPDLYTQIASISAGIPQINRVSSDYVIHQKNGLVISDISKLSSAIEFYFDGLFNWNEALIYAVRKMSDYTSGKILKQWKGMLKKK",glycan array binding signal (z-score),[12],-0.075
same,glycan array binding signal (z-score),Gal(b1-3)GlcNAc(b1-2)Man,2.06
